Measurements as given in the supplement of paper PMC10849652.
The other results are listed elsewhere or left out.

Sequences of proteins named here, by UniProt entry; tags and fusion partners are left off. A change or cut given only in a name is not applied to a line headed by its entry.
UniProt P12318: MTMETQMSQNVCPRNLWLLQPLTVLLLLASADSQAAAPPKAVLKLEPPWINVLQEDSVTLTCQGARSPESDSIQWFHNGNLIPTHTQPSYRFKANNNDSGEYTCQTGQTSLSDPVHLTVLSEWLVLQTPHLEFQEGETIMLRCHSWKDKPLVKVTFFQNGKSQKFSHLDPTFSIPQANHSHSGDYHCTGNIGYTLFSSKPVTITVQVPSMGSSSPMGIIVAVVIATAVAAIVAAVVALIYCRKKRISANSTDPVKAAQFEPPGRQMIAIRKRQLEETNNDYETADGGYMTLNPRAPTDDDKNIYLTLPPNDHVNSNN
UniProt Q6ZV73: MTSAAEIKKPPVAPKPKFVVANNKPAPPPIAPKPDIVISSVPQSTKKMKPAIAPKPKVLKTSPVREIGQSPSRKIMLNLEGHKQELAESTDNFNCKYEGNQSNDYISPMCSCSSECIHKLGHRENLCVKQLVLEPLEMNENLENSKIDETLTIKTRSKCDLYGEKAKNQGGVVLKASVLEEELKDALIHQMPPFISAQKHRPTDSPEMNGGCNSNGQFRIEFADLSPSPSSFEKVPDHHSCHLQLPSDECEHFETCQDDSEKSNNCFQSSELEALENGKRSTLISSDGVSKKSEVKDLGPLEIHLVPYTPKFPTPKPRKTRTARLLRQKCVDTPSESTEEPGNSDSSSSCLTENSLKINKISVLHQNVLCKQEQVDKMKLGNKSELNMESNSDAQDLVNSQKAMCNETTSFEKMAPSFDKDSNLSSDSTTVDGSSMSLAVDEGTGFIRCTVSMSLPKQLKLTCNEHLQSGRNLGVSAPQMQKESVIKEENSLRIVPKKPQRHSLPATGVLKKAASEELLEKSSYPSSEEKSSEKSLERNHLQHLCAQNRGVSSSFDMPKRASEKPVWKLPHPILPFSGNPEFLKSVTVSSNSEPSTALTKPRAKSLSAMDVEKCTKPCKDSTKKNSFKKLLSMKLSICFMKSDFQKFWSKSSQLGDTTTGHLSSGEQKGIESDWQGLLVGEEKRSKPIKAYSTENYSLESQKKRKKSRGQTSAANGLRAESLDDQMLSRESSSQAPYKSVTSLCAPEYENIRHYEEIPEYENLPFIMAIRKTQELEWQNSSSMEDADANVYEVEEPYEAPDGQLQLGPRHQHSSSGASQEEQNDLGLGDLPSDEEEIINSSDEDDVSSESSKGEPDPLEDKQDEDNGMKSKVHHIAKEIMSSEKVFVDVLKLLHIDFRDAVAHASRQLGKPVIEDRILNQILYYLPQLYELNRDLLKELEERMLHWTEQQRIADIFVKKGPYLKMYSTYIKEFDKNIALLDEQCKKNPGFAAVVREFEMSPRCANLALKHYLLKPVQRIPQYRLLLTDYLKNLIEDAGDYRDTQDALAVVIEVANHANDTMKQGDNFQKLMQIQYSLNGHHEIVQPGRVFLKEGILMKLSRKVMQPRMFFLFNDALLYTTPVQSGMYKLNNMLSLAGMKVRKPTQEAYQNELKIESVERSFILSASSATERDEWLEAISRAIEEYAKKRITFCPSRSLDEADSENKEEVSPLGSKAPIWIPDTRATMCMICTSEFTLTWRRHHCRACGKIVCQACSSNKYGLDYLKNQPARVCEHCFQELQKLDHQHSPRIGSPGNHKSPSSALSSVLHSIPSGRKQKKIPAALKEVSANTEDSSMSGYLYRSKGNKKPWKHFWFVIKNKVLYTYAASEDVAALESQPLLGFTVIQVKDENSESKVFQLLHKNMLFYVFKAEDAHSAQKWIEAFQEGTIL
UniProt P22830: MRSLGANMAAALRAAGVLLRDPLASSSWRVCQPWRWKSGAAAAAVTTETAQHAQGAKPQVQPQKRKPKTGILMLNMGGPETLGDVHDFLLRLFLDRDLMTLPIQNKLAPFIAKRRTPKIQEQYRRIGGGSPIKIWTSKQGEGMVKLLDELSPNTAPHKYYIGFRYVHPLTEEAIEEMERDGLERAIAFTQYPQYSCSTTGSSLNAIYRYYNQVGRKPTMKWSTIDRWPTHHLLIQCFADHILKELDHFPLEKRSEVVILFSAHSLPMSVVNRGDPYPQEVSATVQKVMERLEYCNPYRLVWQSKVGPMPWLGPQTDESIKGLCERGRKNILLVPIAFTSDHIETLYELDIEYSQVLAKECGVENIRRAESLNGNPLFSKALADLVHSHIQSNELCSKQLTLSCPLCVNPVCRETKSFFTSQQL
UniProt Q5T0N5: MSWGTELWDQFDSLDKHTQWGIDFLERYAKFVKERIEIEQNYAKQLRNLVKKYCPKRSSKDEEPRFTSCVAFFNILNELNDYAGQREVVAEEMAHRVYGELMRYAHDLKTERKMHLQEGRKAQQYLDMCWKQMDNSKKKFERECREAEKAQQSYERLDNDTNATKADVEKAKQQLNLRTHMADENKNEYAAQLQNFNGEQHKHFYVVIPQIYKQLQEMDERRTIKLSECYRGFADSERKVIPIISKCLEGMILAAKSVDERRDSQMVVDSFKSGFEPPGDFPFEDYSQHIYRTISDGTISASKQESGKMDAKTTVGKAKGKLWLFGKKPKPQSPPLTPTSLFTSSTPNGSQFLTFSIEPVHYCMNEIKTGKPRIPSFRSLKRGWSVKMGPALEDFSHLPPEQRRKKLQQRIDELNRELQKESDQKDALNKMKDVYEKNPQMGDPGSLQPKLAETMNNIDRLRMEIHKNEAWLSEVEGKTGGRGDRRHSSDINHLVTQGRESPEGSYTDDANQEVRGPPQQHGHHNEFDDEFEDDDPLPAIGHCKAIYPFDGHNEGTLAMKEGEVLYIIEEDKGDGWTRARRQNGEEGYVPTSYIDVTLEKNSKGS
UniProt Q13451: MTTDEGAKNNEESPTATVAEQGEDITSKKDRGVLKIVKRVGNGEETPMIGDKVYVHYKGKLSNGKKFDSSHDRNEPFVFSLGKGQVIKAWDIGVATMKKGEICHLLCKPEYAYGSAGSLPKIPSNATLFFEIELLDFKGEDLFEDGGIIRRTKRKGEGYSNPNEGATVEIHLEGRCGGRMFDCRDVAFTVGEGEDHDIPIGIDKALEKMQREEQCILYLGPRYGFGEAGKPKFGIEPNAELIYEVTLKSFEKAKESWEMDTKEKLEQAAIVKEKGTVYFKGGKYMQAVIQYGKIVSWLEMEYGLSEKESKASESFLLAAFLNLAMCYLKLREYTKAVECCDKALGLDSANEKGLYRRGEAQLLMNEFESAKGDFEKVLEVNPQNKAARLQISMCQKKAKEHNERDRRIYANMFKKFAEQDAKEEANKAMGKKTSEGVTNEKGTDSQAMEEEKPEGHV
UniProt O95363: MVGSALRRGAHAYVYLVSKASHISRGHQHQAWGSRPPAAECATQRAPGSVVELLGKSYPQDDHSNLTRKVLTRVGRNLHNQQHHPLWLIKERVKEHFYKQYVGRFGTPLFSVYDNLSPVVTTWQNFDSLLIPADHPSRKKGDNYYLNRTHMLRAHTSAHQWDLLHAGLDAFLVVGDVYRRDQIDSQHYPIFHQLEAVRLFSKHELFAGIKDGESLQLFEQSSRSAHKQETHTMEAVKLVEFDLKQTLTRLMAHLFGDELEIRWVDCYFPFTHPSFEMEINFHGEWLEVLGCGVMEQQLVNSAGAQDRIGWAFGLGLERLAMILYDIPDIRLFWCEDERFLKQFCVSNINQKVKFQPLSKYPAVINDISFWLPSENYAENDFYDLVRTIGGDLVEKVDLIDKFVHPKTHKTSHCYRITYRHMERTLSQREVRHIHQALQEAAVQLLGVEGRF
UniProt Q7L8L6: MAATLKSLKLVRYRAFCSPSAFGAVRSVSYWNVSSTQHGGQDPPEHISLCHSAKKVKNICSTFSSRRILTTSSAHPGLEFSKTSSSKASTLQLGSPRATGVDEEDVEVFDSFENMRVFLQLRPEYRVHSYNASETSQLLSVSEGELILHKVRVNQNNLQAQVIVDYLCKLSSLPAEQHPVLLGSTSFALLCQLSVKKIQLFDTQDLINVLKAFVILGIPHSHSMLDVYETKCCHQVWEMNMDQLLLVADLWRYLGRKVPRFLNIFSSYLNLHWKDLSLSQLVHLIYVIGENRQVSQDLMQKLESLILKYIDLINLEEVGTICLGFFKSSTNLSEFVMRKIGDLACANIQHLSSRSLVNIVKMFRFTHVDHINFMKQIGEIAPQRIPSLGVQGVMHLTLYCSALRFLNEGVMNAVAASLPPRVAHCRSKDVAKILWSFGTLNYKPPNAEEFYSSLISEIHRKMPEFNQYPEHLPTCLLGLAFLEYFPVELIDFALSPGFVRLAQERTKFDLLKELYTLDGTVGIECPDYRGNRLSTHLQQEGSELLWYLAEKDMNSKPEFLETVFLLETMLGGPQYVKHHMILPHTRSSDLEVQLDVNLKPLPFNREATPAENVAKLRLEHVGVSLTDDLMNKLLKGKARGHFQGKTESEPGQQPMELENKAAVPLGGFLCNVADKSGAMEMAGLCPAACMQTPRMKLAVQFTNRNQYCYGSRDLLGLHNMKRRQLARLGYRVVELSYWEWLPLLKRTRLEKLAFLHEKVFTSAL
UniProt P22570: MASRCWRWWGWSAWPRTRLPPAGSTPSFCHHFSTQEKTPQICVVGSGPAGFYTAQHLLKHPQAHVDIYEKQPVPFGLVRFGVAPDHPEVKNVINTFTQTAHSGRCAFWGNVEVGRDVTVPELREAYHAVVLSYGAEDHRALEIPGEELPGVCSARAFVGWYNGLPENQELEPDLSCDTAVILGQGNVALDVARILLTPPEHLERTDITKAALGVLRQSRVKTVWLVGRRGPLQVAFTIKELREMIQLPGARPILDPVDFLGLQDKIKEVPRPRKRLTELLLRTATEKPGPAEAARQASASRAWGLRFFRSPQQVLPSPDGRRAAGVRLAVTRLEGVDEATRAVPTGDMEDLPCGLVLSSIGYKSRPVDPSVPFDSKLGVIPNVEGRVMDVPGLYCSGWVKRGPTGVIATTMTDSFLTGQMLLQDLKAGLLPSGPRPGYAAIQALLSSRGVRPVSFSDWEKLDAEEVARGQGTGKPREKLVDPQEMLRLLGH
UniProt Q96GI7: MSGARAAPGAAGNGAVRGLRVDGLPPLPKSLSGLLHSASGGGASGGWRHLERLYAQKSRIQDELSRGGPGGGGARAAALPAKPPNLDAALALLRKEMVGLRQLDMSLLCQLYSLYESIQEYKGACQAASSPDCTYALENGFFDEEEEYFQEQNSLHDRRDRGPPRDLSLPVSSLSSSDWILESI
UniProt Q9Y5Y0: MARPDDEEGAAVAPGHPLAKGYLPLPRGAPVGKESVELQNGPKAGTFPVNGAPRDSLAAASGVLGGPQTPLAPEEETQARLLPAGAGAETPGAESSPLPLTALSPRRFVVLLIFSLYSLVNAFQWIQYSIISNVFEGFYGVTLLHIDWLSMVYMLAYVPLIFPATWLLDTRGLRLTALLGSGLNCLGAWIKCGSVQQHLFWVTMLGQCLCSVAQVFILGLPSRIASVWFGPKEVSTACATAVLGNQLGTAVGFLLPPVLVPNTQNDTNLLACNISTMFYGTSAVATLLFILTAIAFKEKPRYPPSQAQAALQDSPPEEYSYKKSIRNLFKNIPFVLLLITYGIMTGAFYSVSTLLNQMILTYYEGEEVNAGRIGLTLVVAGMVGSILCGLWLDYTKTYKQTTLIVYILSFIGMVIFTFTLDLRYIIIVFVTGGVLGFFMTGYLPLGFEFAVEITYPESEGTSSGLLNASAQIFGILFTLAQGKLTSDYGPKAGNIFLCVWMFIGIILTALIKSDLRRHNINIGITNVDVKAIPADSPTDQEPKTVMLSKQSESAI
UniProt Q86UX7, whole entry, looked up: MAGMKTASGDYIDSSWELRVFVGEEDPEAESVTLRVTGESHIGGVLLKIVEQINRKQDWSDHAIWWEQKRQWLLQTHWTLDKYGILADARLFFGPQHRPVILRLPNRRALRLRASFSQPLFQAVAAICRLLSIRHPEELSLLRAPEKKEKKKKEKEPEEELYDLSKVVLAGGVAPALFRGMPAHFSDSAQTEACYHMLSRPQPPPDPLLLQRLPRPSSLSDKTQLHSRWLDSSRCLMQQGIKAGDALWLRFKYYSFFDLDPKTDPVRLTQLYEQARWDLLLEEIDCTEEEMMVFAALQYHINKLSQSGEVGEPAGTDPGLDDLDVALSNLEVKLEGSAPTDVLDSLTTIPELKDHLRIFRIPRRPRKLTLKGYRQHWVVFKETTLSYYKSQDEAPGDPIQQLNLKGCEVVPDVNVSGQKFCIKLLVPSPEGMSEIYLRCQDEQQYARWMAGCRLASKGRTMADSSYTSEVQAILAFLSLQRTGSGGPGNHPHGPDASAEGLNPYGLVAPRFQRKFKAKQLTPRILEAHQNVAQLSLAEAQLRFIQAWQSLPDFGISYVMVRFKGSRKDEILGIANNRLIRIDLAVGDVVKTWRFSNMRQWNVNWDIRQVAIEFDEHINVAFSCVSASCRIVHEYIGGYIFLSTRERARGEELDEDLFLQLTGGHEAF

Columns and labels:
Assay in all cases: log2 fold change, soluble protein after heating vs DMSO (PISA); higher = thermal stabilisation; K562 lysate, 10 uM; active = over 0.2 and 3.5 SD of the protein, either way, in both replicates (recomputed)
erlotinib = compound: C#Cc1cccc(Nc2ncnc3cc(OCCOC)c(OCCOC)cc23)c1 [erlotinib]
Outline: (§1)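 Quantification was by TMTpro 16plex LC-MS/MS with equalised channel sums, applied to the supernatant after 21,000xg for 90 min. Samples were crude K562 extract at 1 mg/mL protein in PBS pH 7.4 with 1 mM MgCl2, treated with 10 μM compound for 30 min, heated for 3 min across 48°C-58°C, pooled and brought to 0.5% NP-40 at 4°C. Values are log-two fold changes in thermal stability relative to solvent controls, from duplicates.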

[1] = compound: C/C(=N\NC(=O)C1=CC(=CC=C1)S(=O)(=O)N2CCOCC2)/C3=C(C=CC(=C3)Cl)O
Outline: as §1

[2] = compound: C1=CC(=CC=C1C2=NC3=C(N2)C=C(C=C3)C(=O)N)OC4=CC=C(C=C4)Cl
Outline: as §1

[3] = compound: C1=CC2=C(C=CC(=C2)/C=C\3/C(=O)NC(=NCC4=CC=CS4)S3)N=C1
Outline: as §1

[4] = compound: C1=CC2=NC=CN=C2C=C1/C=C/3\C(=O)NC(=O)S3
Outline: as §1

[5] = compound: C1=CC=C(C=C1)C2=NC(=C(N2)C3=CC=NC=C3)C4=CC(=C(C=C4)Cl)O
Outline: as §1

[6] = compound: C1=CC=C2C(=C1)C3=NNC4=CC=CC(=C43)C2=O
Outline: as §1

[7] = compound: C1CCN(C1)C(=O)NC2=CC=CC(=C2)NC3=NC=C(C(=N3)NCCC4=CN=CN4)Br
Outline: as §1

[8] = compound: C1CN(CCC1(CC2=CC=C(C=C2)Cl)N)C3=NC=NC4=C3C=CN4
Outline: as §1

IRAK-1-4 Inhibitor I = compound: C1COCCN1CCN2C3=CC=CC=C3N=C2NC(=O)C4=CC(=CC=C4)[N+](=O)[O-] [IRAK-1-4 Inhibitor I]
Outline: as §1

ibrutinib = compound: C=CC(=O)N1CCC[C@@H](n2nc(-c3ccc(Oc4ccccc4)cc3)c3c(N)ncnc32)C1 [ibrutinib]
Outline: as §1

[9] = compound: CC(=O)c1cnc2ccc(-c3cc(Cl)c(O)c(Cl)c3)nc2c1N[C@H]1CC[C@H](CN(C)C)CC1
Outline: as §1

ralimetinib = compound: CC(C)(C)Cn1c(N)nc2ccc(-c3[nH]c(C(C)(C)C)nc3-c3ccc(F)cc3)nc21 [ralimetinib]
Outline: as §1

[10] = compound: CC(C)(O)CC(=O)NCCn1ccc2ncnc(Nc3ccc(Oc4cccc(C(F)(F)F)c4)c(Cl)c3)c21
Outline: as §1

[11] = compound: CC(C)C1=C2N=C(C=C(N2N=C1)NCC3=CC=CC=C3)NCCCCCCN
Outline: as §1

[12] = compound: CC1=C(C(CC(=O)N1)C2=CC=C(C=C2)C(F)(F)F)C(=O)NC3=C(C=C4C(=C3)C=NN4)F
Outline: as §1

[13] = compound: CC1=C(C2=C(C=C1)C(=O)C3=CC=CC=C3N2CCCN)C
Outline: as §1

[14] = compound: CC1=C(C=C(C=C1)NC(=O)C2=CC(=CC=C2)C(C)(C)C#N)NC3=CC4=C(C=C3)N=CN(C4=O)C
Outline: as §1

[15] = compound: CC1=C(C=C(C=C1)NC(=O)C2=CC(=CC=C2)N(C)C)NC(=O)C3=CC=C(C=C3)O
Outline: as §1

[16] = compound: CC1=CC=C(C=C1)SC2=C3C=C(SC3=CN=C2)C(=O)N
Outline: as §1

Measured: log2 fold change

FCGR2A (UniProt P12318)
inactive: erlotinib -0.025 | [1] -0.021 | [2] 0.048 | [3] -0.028 | [4] -0.013 | [5] -0.067 | [6] 0.008 | [7] 0.014 | [8] 0.027 | IRAK-1-4 Inhibitor I 0.028 | ibrutinib 0.054 | [9] 0.019 | ralimetinib 0.002 | [10] -0.039 | [11] -0.02 | [12] -0.043 | [13] 0.042 | [14] 0.018 | [15] -0.001 | [16] -0.029

FBXO2 (UniProt Q9UK22)
inactive: erlotinib -0.012 | [1] -0.092 | [2] 0.051 | [3] -0.13 | [4] -0.085 | [5] -0.018 | [6] 0.056 | [7] 0.002 | [8] 0.02 | IRAK-1-4 Inhibitor I -0.122 | ibrutinib 0.033 | [9] -0.026 | ralimetinib 0.029 | [10] 0.105 | [11] -0.108 | [12] -0.087 | [13] -0.006 | [14] 0.065 | [15] -0.082 | [16] -0.017

FGD6 (UniProt Q6ZV73)
inactive: erlotinib 0.011 | [1] -0.298 | [2] 0.042 | [3] 0.537 | [4] 0.404 | [5] 0.361 | [6] -0.353 | [7] 0.02 | [8] 0.042 | IRAK-1-4 Inhibitor I -0.019 | ibrutinib -0.472 | [9] -0.492 | ralimetinib -0.637 | [10] 0.095 | [11] -0.023 | [12] 0.251 | [13] -0.029 | [14] 0.446 | [15] -0.008 | [16] -0.165

FECH isoform 2 (UniProt P22830)
active: [16] -1.11
inactive: erlotinib 0.101 | [1] 0.062 | [2] -0.321 | [3] 0.42 | [4] -0.014 | [5] 0.354 | [6] 0.673 | [7] 0.183 | [8] -0.009 | IRAK-1-4 Inhibitor I 0.644 | ibrutinib 0.091 | [9] 0.104 | ralimetinib -0.034 | [10] 0.504 | [11] 0.327 | [12] -0.263 | [13] 0.287 | [14] 0.748 | [15] 0.028

FNBP1L (UniProt Q5T0N5)
inactive: erlotinib 0.015 | [1] -0.018 | [2] 0.013 | [3] 0.031 | [4] 0.044 | [5] 0.066 | [6] 0 | [7] -0.012 | [8] -0.061 | IRAK-1-4 Inhibitor I -0.016 | ibrutinib 0.034 | [9] -0.006 | ralimetinib 0.055 | [10] -0.082 | [11] -0.003 | [12] 0 | [13] 0.066 | [14] -0.007 | [15] 0.035 | [16] 0.034

FKBP5 (UniProt Q13451)
inactive: erlotinib -0.005 | [1] -0.09 | [2] -0.029 | [3] 0.025 | [4] 0.002 | [5] 0.005 | [6] -0.012 | [7] 0.049 | [8] 0.027 | IRAK-1-4 Inhibitor I -0.018 | ibrutinib -0.014 | [9] -0.009 | ralimetinib 0.012 | [10] 0.002 | [11] -0.002 | [12] -0.025 | [13] -0.008 | [14] -0.008 | [15] 0.015 | [16] -0.012

FNTB (UniProt P49356)
inactive: erlotinib -0.03 | [1] -0.038 | [2] 0.011 | [3] 0.013 | [4] -0.034 | [5] -0.005 | [6] -0.02 | [7] 0.028 | [8] -0.022 | IRAK-1-4 Inhibitor I -0.006 | ibrutinib -0.018 | [9] 0.005 | ralimetinib 0.03 | [10] -0.013 | [11] -0.022 | [12] -0.036 | [13] -0.026 | [14] -0.011 | [15] 0.038 | [16] -0.013

FARS2 (UniProt O95363)
inactive: erlotinib -0.029 | [1] -0.058 | [2] -0.128 | [3] -0.006 | [4] -0.12 | [5] -0.094 | [6] -0.12 | [7] 0.087 | [8] 0.11 | IRAK-1-4 Inhibitor I 0.19 | ibrutinib 0.007 | [9] -0.412 | ralimetinib 0.037 | [10] 0.011 | [11] 0.057 | [12] -0.154 | [14] 0.022 | [15] 0.053 | [16] -0.038

FASTKD5 (UniProt Q7L8L6)
inactive: erlotinib 0.061 | [1] 0.019 | [2] -0.054 | [3] 0.023 | [4] 0.013 | [5] -0.014 | [6] -0.066 | [7] -0.047 | [8] 0.013 | IRAK-1-4 Inhibitor I -0.019 | ibrutinib -0.134 | [9] 0.056 | ralimetinib 0.073 | [10] 0.007 | [11] -0.027 | [12] 0.032 | [13] 0.006 | [14] 0.021 | [15] 0.008 | [16] -0.053

FDXR isoform 7 (UniProt P22570)
inactive: erlotinib -0.003 | [1] -0.259 | [2] -0.015 | [3] 0.001 | [4] 0.013 | [5] 0.015 | [6] -0.044 | [7] 0.021 | [8] 0.046 | IRAK-1-4 Inhibitor I -0.011 | ibrutinib 0.002 | [9] 0.007 | ralimetinib 0.028 | [10] 0.043 | [11] -0.007 | [12] -0.004 | [13] -0.035 | [14] -0.038 | [15] 0.046 | [16] 0.004

FAM89A (UniProt Q96GI7)
inactive: erlotinib -0.033 | [1] 0.038 | [2] 0.005 | [3] 0.002 | [4] -0.057 | [5] 0.036 | [6] -0.046 | [7] 0.059 | [8] -0.001 | IRAK-1-4 Inhibitor I 0.073 | ibrutinib -0.022 | [9] -0.007 | ralimetinib -0.032 | [10] -0.014 | [11] 0.029 | [12] 0.025 | [13] -0.01 | [14] 0.067 | [15] -0.069 | [16] -0.107

FLVCR1 (UniProt Q9Y5Y0)
inactive: erlotinib 0.128 | [1] 0.041 | [2] 0.026 | [3] -0.069 | [4] 0.051 | [5] 0.048 | [6] 0.087 | [7] -0.13 | [8] 0.011 | IRAK-1-4 Inhibitor I 0.018 | ibrutinib -0.019 | [9] 0.016 | ralimetinib -0.019 | [10] -0.013 | [11] -0.028 | [12] -0.169 | [13] -0.013 | [14] -0.014 | [15] 0.023 | [16] -0.019

Taken from the results shown (2 entries):
FCGR2A (UniProt P12318)
inactive: erlotinib -0.025 | [1] -0.021 | [2] 0.048 | [3] -0.028 | [4] -0.013 | [5] -0.067 | [6] 0.008 | [7] 0.014 | [8] 0.027 | IRAK-1-4 Inhibitor I 0.028 | ibrutinib 0.054 | [9] 0.019 | ralimetinib 0.002 | [10] -0.039 | [11] -0.02 | [12] -0.043 | [13] 0.042 | [14] 0.018 | [15] -0.001 | [16] -0.029

FBXO2 (UniProt Q9UK22)
inactive: erlotinib -0.012 | [1] -0.092 | [2] 0.051 | [3] -0.13 | [4] -0.085 | [5] -0.018 | [6] 0.056 | [7] 0.002 | [8] 0.02 | IRAK-1-4 Inhibitor I -0.122 | ibrutinib 0.033 | [9] -0.026 | ralimetinib 0.029 | [10] 0.105 | [11] -0.108 | [12] -0.087 | [13] -0.006 | [14] 0.065 | [15] -0.082 | [16] -0.017

Later entries

FLCN (UniProt Q8NFG4)
inactive: erlotinib 0.02 | [1] -0.011 | [2] 0.086 | [3] -0.002 | [4] -0.028 | [5] 0.017 | [6] -0.028 | [7] 0.034 | [8] -0.038 | IRAK-1-4 Inhibitor I 0.06 | ibrutinib 0.033 | [9] -0.01 | ralimetinib 0.051 | [10] -0.113 | [11] -0.061 | [12] 0.002 | [13] 0.001 | [14] 0.055 | [15] -0.016 | [16] -0.053

FERMT3 (UniProt Q86UX7)
inactive: erlotinib 0.011 | [1] 0.01 | [2] 0.007 | [3] -0.008 | [4] 0 | [5] 0.002 | [6] -0.017 | [7] -0.025 | [8] 0.005 | IRAK-1-4 Inhibitor I 0.008 | ibrutinib -0.008 | [9] -0.011 | ralimetinib 0 | [10] -0.014 | [11] -0.001 | [12] -0.018 | [13] 0 | [14] 0.026 | [15] 0.007 | [16] 0.004

FMR1 (UniProt Q06787)
inactive: erlotinib -0.092 | [1] -0.043 | [2] -0.077 | [3] 0 | [4] 0.078 | [5] -0.015 | [6] 0.201 | [7] 0.003 | [8] 0.044 | IRAK-1-4 Inhibitor I 0 | ibrutinib -0.046 | [9] -0.017 | ralimetinib 0.032 | [10] -0.033 | [11] -0.089 | [12] 0.026 | [13] -0.019 | [14] -0.085 | [15] 0.06 | [16] 0.003

FARSA (UniProt Q9Y285)
inactive: erlotinib 0.045 | [1] -0.001 | [2] -0.054 | [3] 0.009 | [4] 0 | [5] 0.119 | [6] -0.005 | [7] 0.009 | [8] -0.023 | IRAK-1-4 Inhibitor I -0.018 | ibrutinib -0.006 | [9] -0.02 | ralimetinib 0.048 | [10] 0.025 | [11] 0.06 | [12] -0.014 | [13] -0.063 | [14] 0.055 | [15] 0 | [16] 0.006
